Data taken from patent US20070059320A1.
Results are given in words; binding and its absence hold for the method and conditions named. Binding seen in cells or lysates may run through a third protein. For some of these results: Binding can be weak; no strength is given.

Columns and labels:
[1] = biological target: ND2.1-GST fusion protein (amino acids 239-321 of human ND2) (human); experiment: biotinylated peptides on ND2.1-GST, bead pull-down and dot blot
[2] = biological target: ND2.1-GST fusion protein (amino acids 239-321 of human ND2) (human); experiment: legend of FIGS. 6A-C (biotinylated peptides on ND2.1-GST, bead pull-down and dot blot)
[3] = biological target: Fyn, native protein in brain homogenate; experiment: co-immunoprecipitation from brain homogenate with anti-ND2, immunoblot with anti-Fyn
[4] = biological target: GABAARα, native protein in PSD preparations (rat); experiment: co-immunoprecipitation from PSD preparations with anti-GABAARα, probed with anti-ND2

Binder	binding [1]	binding [2]	binding [3]	binding [4]
KPASADGHR (biotinylated with Sulfo-NHS-Biotin when used as probe) [Src40-49 peptide (SUDAPI-1)]	binds	binds	–	–
NADH dehydrogenase subunit 2 (ND2), native protein in brain lysates, PSD preparations, hippocampal neurons and tissues (protein, UniProt P11662 1-346, looked up) MNPITLIIIYFTILMGPVITMSSSNLLLMWVGLEMSLLAIIPLLANKKSPRSTEAATKYFLTQATASMIILLVIILNYKQSGMWTLQQQTNNMLLNMMLISLAMKLGLAPFHYWLPEVTQGIPLHIGLILLTWQKIAPLSILYQFYQLLNPTITTILAISSVFVGAWGGLNQTQTRKIMAYSSIAHMGWMTAILPYNPNLTLLNLTIYILLTVPMFITLMTNSATTINTLSLAWNKTPMILTMTSIILLSLGGLPPLTGFLPKWAIISELLKNNCSTLSTLMAIMALLSLFFYTRLIYSMSLTMFPTNNNSKMISHHHQNPKHNFILPTLTVLSTLTLPLSSQLIT	–	–	no binding	no binding
